According to PubChem BioAssay AID1307 (SRMLSC, 2008):
Out of some 1,200 compounds screened, fewer than 10 were called active.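 How the source made its calls: active means inhibition reaching a set limit at one or more tested concentrations; inactive means inhibition under that limit at every dose.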 The list shows a part of the results. Potency and affinity values are given separately.

Experiment: yeast RAM network inhibitors, dose response, S. cerevisiae (AID 1307);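 further: 0% = DMSO vehicle wells and 100% = 10 µM 1-NA-PP1 control; higher inhibition means more yeast growth since RAM block rescues cells from 5-FOA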
Details: S. cerevisiae RAM network URA3 reporter, 5-FOA growth OD615, stronger effect = higher value, yeast express analog-sensitive mutant Cbk1 kinase; at 100 µM unless noted

Max inhibition, inactive:
CCCCCCNC(=O)c1cc(-c2ccco2)nc2ccccc12 2.66%
CCOC(=O)c1cccc(NC(=O)CSc2nnc(COc3ccccc3C)o2)c1 2.04% [at 50 µM]
Cn1nc(C(F)(F)F)c(/C=N/OC(=O)c2ccccc2Cl)c1SCc1ccccc1Cl 0.46% [at 25 µM]
Cc1ccc(N2CCN(C(=O)c3cc(C(=O)c4ccccc4C)c[nH]3)CC2)c(C)c1 2.01%
N#C/C(=C\Nc1ccccc1SC(F)(F)F)c1nc(-c2ccccc2)cs1 4.49% [at 3.125 µM]
Cc1cccc(OCCC(=O)Nc2ccc(C)c(S(=O)(=O)N3CCCCC3)c2)c1 4.92%
CNS(=O)(=O)c1cccc(C(=O)OCc2csc(-c3ccccc3)n2)c1 3.04%
CCN(CC)S(=O)(=O)c1cccc(C(=O)c2c(C)cc3ccccn23)c1 1.52%
CCCCNC(=S)N(C)/N=C/c1ccc(OCc2ccc(C(=O)OC)cc2)c(OC)c1 9.25%
COc1cccc(/C=C(/C(=O)OCC(=O)NC2CCCCCCC2)c2ccccc2)c1 4.43% [at 25 µM]
COc1ccccc1-n1c(COc2ccccc2-c2ccccc2)nnc1SCC(=O)c1c(N)n(C)c(=O)n(C)c1=O 11.9%
CSc1nc2ccccc2cc1/C=C(\C#N)c1cccc(C)c1 6.35% [at 50 µM]
O=C(OCc1nnc(-c2ccccc2)o1)C12CC3CC(CC(Br)(C3)C1)C2 4.38% [at 1.563 µM]
NS(=O)(=O)c1ccc(NC(=S)NC(=O)c2cccc(Br)c2)cc1 1.28% [at 25 µM]
COc1ccccc1C(NC(=O)C1CCCCC1)c1c(O)ccc2ccccc12 (configuration not stated) 5.27%
Nc1ncnc(Sc2ccccc2)c1[N+](=O)[O-] 8.94%
COc1ccc(C2=NN(C(C#N)c3ccc(OC)cc3)C(c3ccccc3)C2)cc1 (configuration not stated) 6.79%
CCN(CC)C(=O)CSc1nc2cc3c(cc2c(=O)n1CCCCCC(=O)NCc1ccc(OC)cc1)OCO3 4.6%
CCCS(=O)(=O)c1c(S(=O)(=O)CCC)c2c(N)cccn2c1C(=O)c1ccc(Br)cc1 6.47%
Cc1ccc(C2=NN(Cc3nnc(-c4ccccc4)o3)C(=O)SC2)cc1 3.29%
CCCCN(CC(=O)NCc1ccc(Cl)cc1)S(=O)(=O)c1ccc2c(c1)OCCO2 2.29% [at 12.5 µM]
COc1cc(-c2cc(C(=O)Nc3ccc(S(=O)(=O)NCc4ccco4)cc3)c3ccccc3n2)cc(OC)c1OC 11.7%
CC(C)c1ccc(CNc2cc(N3CCCC3)ccc2[N+](=O)[O-])cc1 5.27%
COC(=O)c1c(NC(=O)c2ccc(C)cc2)sc(Cc2ccccc2)c1C 3.81%
C=CCN(CC=C)S(=O)(=O)c1ccc(NC(=S)NC(=O)c2ccc(-c3ccccc3)cc2)cc1 3.65%
CN(C)c1ccc(N=Nc2ccccc2C(=O)OCC(=O)NCC2CCCCC2)cc1 4.33% [at 50 µM]
CCCCN(C(=O)c1cccc2c(=O)c(C)c(-c3ccccc3)oc12)c1ccccc1 2.21% [at 25 µM]
COc1ccc(-c2nc(-c3ccc(O)cc3O)cs2)cc1OC 5.02% [at 3.125 µM]
Cc1ccc(C(=O)CC(=O)c2ccc(C(C)(C)C)cc2)cc1 10.3%
COC(=O)c1cc(=O)n(CCc2ccccc2)c(=Nc2ccc(F)cc2)s1 4.08% [at 50 µM]
CCOC(=O)c1sc2nc(CSCC(=O)OCc3ccc(C(=O)OC)o3)[nH]c(=O)c2c1C 3.02% [at 25 µM]
COc1cccc(OCCNc2cc(N3CCOCC3)ccc2[N+](=O)[O-])c1 3.13% [at 0.782 µM]
CCC(=O)N1CCc2cc(S(=O)(=O)NC(Cc3ccccc3)C(=O)NC3CCCCC3)ccc21 (configuration not stated) 3.34% [at 1.563 µM]
COc1ccc(NS(=O)(=O)c2ccc3oc(SCc4ccc(F)cc4)nc3c2)cc1 3% [at 1.563 µM]
CCOC(=O)c1cnn(-c2ccccc2)c1-n1cccc1C(=O)C(=O)Nc1ccccc1C(F)(F)F 4.62%
CCCN1C(=O)/C(=C/c2ccc(C)s2)SC1=Nc1ccc(OC)cc1 7.08% [at 25 µM]
CCOC(=O)c1cnc(SC)nc1Oc1cccc(NC(=O)c2ccc(C)cc2)c1 5.83% [at 50 µM]
COC(=O)CCSCC(=O)N1N=C(c2ccc(Br)cc2)CC1c1cccc(OC)c1OC (configuration not stated) 1.41%
Cc1cccc(NC(=O)/C(C#N)=C/c2ccc(Sc3ccccc3)o2)c1C 10.5%
Cc1ccc(NC(=O)c2ccc(F)cc2)cc1S(=O)(=O)N1CCCCCC1 3.05% [at 6.25 µM]
O=C(O)c1ccc(Cl)c(S(=O)(=O)Nc2cccc(C(=O)Nc3cccc(C(F)(F)F)c3)c2)c1 4.27% [at 1.563 µM]
O=[N+]([O-])c1ccc(-c2nnc(-c3ccccc3)c(NCCCO)n2)cc1 3.03% [at 50 µM]
CCN(Cc1ccccc1)S(=O)(=O)c1ccc(S(=O)(=O)N(Cc2ccccn2)Cc2ccco2)cc1 13.1%
CCOc1cc(/C=N/N=C2/NC(=O)C(CC(=O)O)S2)ccc1OS(=O)(=O)c1ccc(C)cc1 (configuration not stated) 2.55% [at 3.125 µM]
Cc1nn(Cc2c(Cl)cccc2Cl)c(C)c1NC(=O)Cn1nc([N+](=O)[O-])c(Cl)c1C 2.95% [at 0.391 µM]
COc1ccc(CCNC(=O)c2ccc(-c3ccc([N+](=O)[O-])cc3)o2)cc1OC 5.97%
CC(=O)C(N=Nc1ccccc1)(Sc1nnc(-c2ccccc2)n1-c1ccccc1)C(C)=O 3.28%
CC1=C(C(=O)OCc2ccccc2)C(c2ccc(C(C)(C)C)cc2)NC(=O)N1CCCCCC(=O)O (configuration not stated) 5.18%
COc1cc(NC(=O)COC(=O)Cc2ccc(-c3ccccc3)cc2)cc(OC)c1 2.81%
CCOC(=O)c1c(C)nc2c(c1C)c(=O)oc1ccccc12 2.9% [at 12.5 µM]
O=c1c(/C=N/O)coc2ccc3ccccc3c12 1.72% [at 12.5 µM]
Cn1cnnc1SC1c2cccc3cccc(c23)C1NS(=O)(=O)c1ccc(Cl)cc1 (configuration not stated) 6.71%
CCCN(N=Nc1cccc([N+](=O)[O-])c1)c1cccc([N+](=O)[O-])c1 1.92% [at 3.125 µM]
O=C(/C=C/c1cccc(Br)c1)N1CCN(c2cccc(C(F)(F)F)c2)CC1 3.48% [at 50 µM]
c1ccc(-c2csc(N3CCc4ccccc4C3)n2)cc1 2.64% [at 0.196 µM]
CCOCCOC(=O)C(C)Oc1ccc(Oc2nc(Cl)ccc2Cl)cc1 (configuration not stated) 2.21% [at 25 µM]
O=C(NCc1ccc2c(c1)OCO2)c1cc(-c2ccccn2)nc2ccccc12 4.19% [at 3.125 µM]
COc1cccc(CNC(=O)CN2C(=O)CC(c3ccccc3)=Nc3ccccc32)c1 1.81% [at 0.782 µM]
Cc1sc2nc(SCc3ccccc3)n(Cc3ccco3)c(=O)c2c1C 2.81%
COc1ccc(/C=C/C(=O)c2c(O)c(OC)c3occc3c2OC)cc1 11.9% [at 50 µM]
CS(=O)(=O)N(Cc1ccc(C(=O)NCCSCc2ccco2)cc1)c1ccccc1 3.96% [at 50 µM]
COc1ccc2c(c1)C(C)CC(C)(C)N2C(=O)CSc1nc2ccccc2s1 (configuration not stated) 4%
C=CCSC1=N/C(=C/c2ccsc2)C(=O)N1c1ccccc1 2.72%
C=CCn1c(=O)c(C(=O)Nc2ccccc2C(=O)OCC)c(O)c2ccccc21 4.45% [at 50 µM]
Cc1ccc(S(=O)(=O)N2CCC(=O)N(C(COCc3ccc(Cl)c(Cl)c3)Cc3ccccc3)CC2)cc1 (configuration not stated) 5.53%
O=C(COC(=O)/C=C/c1nc2ccccc2s1)Nc1ccccc1Oc1ccccc1 4.29% [at 25 µM]
CCCCN(CCCC)C1=Nc2ccccc2N/C1=C(/C#N)C(=O)OCC 3.63%
O=S(=O)(NCCc1csc(-c2ccc(C(F)(F)F)cc2)n1)c1ccc2c(c1)OCCO2 3.1% [at 0.196 µM]
COc1ccc(CCNC(=O)/C(C#N)=C/c2cccc(OCc3ccccc3)c2)cc1OC 2.94%
O=C(CN(C(=O)CSc1nnc(COc2ccccc2)o1)c1ccc(F)cc1)NC1CCCC1 2.82%
CCOc1ccc(N(C)S(=O)(=O)c2ccc3[nH]cc(C(=O)NCCOC)c(=O)c3c2)cc1 12.1%
Clc1ccc(-c2csc(N3CCC(c4ccccc4)C3)n2)cc1 (configuration not stated) 2.95%
CCOC(=O)c1c(NC(=O)CSc2nnnn2-c2ccc(OC)cc2)sc(C)c1C 2.24%
N#Cc1c(SCc2ccccc2)nc(N2CCOCC2)c2c1CCCC2 4.87% [at 50 µM]
CCOc1ccccc1NC(=O)C(OC(=O)c1ccc(CC)cc1)c1ccccc1 (configuration not stated) 4.01% [at 50 µM]
O=C(COC(=O)c1ccccc1-c1nc2ccccc2s1)Nc1ccccc1C(F)(F)F 2.36%
CCN(CC)S(=O)(=O)c1ccc(OC)c(NC(=O)CSc2cc(C)ccc2C)c1 4.46% [at 6.25 µM]

Taken from the results shown for reference:
Max inhibition, inactive:
C=CCSC1=N/C(=C/c2ccsc2)C(=O)N1c1ccccc1 2.72%
C=CCn1c(=O)c(C(=O)Nc2ccccc2C(=O)OCC)c(O)c2ccccc21 4.45% [at 50 µM]
Cc1ccc(S(=O)(=O)N2CCC(=O)N(C(COCc3ccc(Cl)c(Cl)c3)Cc3ccccc3)CC2)cc1 (configuration not stated) 5.53%
O=C(COC(=O)/C=C/c1nc2ccccc2s1)Nc1ccccc1Oc1ccccc1 4.29% [at 25 µM]
CCCCN(CCCC)C1=Nc2ccccc2N/C1=C(/C#N)C(=O)OCC 3.63%
